Measurements as given in PubChem BioAssay AID504834 (National Center for Advancing Translational Sciences (NCATS), 2011).
In all, about 320,000 compounds went through this assay and about 22,000 (6.9%) were called active. The inconclusive results got no clear call from the source; some entries with a clear call stand among them for comparison. Calls follow the shape of the dose curve; as a rule, active = well fitted inhibition curve with a large enough effect; inconclusive = small, poorly fitted or top-dose-only effect, or another doubt; inactive = no such curve, though single readings can be large or run the other way. Potencies beside an inconclusive call are fits to weak or partial responses and may not hold up.

Assay: Primary qHTS for delayed death inhibitors of the malarial parasite plastid, 96 hour incubation
Settings: P. falciparum luciferase reporter growth; series mostly up to 28.7 µM; activity change, negative = inhibition: at the top concentration
In short: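 96 h incubation, 37 C, 5% CO2, of luciferase-reporter P. falciparum-infected RBCs (2% hematocrit, 0.05% parasitemia final) with test compounds; endpoint luminescence.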
% is scaled to controls: 0 for no effect and ±100 for the full control effect; potency is read from the fitted curve at half-maximal effect.

Row | SMILES | Potency | activity change, negative = inhibition
1 | O=c1oc2c(CN3CCCCC3)c(O)ccc2cc1-c1nc2ccccc2[nH]1 | active: 10.4 µM | –
2 | COc1ccc(CNC(=O)Cc2ccc(-c3ccccc3)cc2)cc1OC | – | inactive: -17.7%
3 | COc1ccc(-n2c(SCC(=O)Nc3nccs3)nc3c(c2=O)SC(C)C3)cc1 (stereo not drawn) | active: 1.04 µM | –
4 | Cc1cc(NC(=O)COC(=O)C2CC(=O)N(c3cccc(Cl)c3)C2)no1 (stereo not drawn) | – | inactive: 50.2%
5 | [N-]=C=C1C(=S)NC(=O)[C@H]([n+]2ccccc2)[C@H]1c1ccc(Cl)cc1 | inconclusive: 0.522 µM [inhibitor, full curve, poor fit] | –
6 | O=C(O)CC(Cc1ccc(Cl)cc1)C(=O)Nc1ccc([N+](=O)[O-])cc1 (stereo not drawn) | inconclusive: 4.15 µM [inhibitor, partial curve] | –
7 | Cc1cc(C)c(C)c(C(=O)COC(=O)CNC(=O)CN2C(=O)c3ccccc3C2=O)c1C | inconclusive: 9.28 µM [inhibitor, partial curve] | –
8 | Cc1ccc(C(NC(=O)CN2C(=O)NC3(CCCC3)C2=O)c2ccccc2)cc1 (stereo not drawn) | inconclusive: 5.86 µM [inhibitor, partial curve, poor fit] | –
9 | COc1ccc(-c2nnn(CC(=O)N(CC(=O)NC3CCCC3)c3cccc(C)c3)n2)cc1OC | inconclusive: 2.33 µM [inhibitor, full curve] | –
10 | CN1CCCCC1c1ccc(-c2cccnc2)nc1 (stereo not drawn) | – | inactive: 1.87%
11 | Cc1cc(C)c(S(=O)(=O)/N=C2\C=C(Nc3ccc(C(=O)O)cc3)C(=O)c3ccccc32)c(C)c1 | – | inactive: 18%
12 | CCOC(=O)c1nnn(-c2nonc2N)c1CN(C)C1CCCCC1 | inconclusive: 18.5 µM [inhibitor, single point] | –
13 | COc1cc(C(=O)OCC(=O)Nc2ccccc2C(=O)NC2CC2)c([N+](=O)[O-])cc1OC | inconclusive: 18.5 µM [inhibitor, single point] | –
14 | Cn1c(OCc2ccco2)nc2c1c(=O)n(Cc1ccc(Cl)c(Cl)c1)c(=O)n2C | – | inactive: -17.3%
15 | c1ccc2oc(Cc3ccc(Cc4nc5ccccc5o4)cc3)nc2c1 | active: 13.1 µM | –
16 | CN(CC1CCOCC1)C(=O)CC1C(=O)NCCN1Cc1ccc(F)c(F)c1 (stereo not drawn) | inconclusive: 18.5 µM [inhibitor, single point] | –
17 | S=c1[nH]nc(-c2cccs2)n1/N=C/c1cn(-c2ccccc2)nc1-c1cccs1 | – | inactive: 55.9%
18 | CCCN(CC(=O)Nc1ccc(F)c(F)c1F)C(=O)Cc1ccc(S(=O)(=O)N2CCOCC2)s1 | inconclusive: 18.5 µM [inhibitor, single point] | –
19 | Cn1c(NCCN(CCO)CCCc2ccc([N+](=O)[O-])cc2)cc(=O)n(C)c1=O | inconclusive: 4.78 µM [inhibitor, partial curve] | –
20 | CC(C)N1C(=O)CCC1C(=O)N1CCN(c2ccccn2)CC1 (stereo not drawn) | inconclusive: 18.5 µM [inhibitor, partial curve, poor fit] | –
21 | Cc1csc(NC(=O)c2ccc(S(=O)(=O)N3CCN(C)CC3)cc2)n1 | inconclusive: 18.5 µM [inhibitor, single point] | –
22 | COc1ccc(C2OC(=O)CC2C(=O)NCc2ccccc2Cl)cc1OC (stereo not drawn) | inconclusive: 11.7 µM [inhibitor, single point] | –
23 | CC1=C(C(N)=O)C(c2cccnc2)n2nc(SCc3ccccc3Cl)nc2N1 (stereo not drawn) | inconclusive: 11.7 µM [inhibitor, single point] | –
24 | COc1cc(Cl)ccc1NC(=S)N(CCN1CCOCC1)C1CCN(C(C)=O)CC1 | inconclusive: 0.37 µM [inhibitor, full curve, poor fit] | –
25 | COc1ccc(CN2CCN(Cc3ccon3)CC2CCO)c(C)c1C (stereo not drawn) | – | inactive: 31.9%

Row | SMILES | Potency | activity change, negative = inhibition
26 | CC(=O)c1c(C)[nH]c(C(=O)COc2cc(C)cc(C)c2)c1C | – | inactive: 68.9%
27 | O=C(c1cc2c(s1)CCCC2)N1CCN(S(=O)(=O)c2ccccc2C(F)(F)F)CC1 | active: 11.7 µM | –
28 | Cc1ccc(NS(=O)(=O)c2ccc(-c3coc(C)n3)cc2)c(C)c1 | inconclusive: 4.15 µM [inhibitor, partial curve] | –
29 | CCCNCc1cc(Br)ccc1OCC(=O)NCCc1ccccc1 | active: 11.7 µM | –
30 | NC(=O)C1c2ccccc2CCc2ccccc21 | inconclusive: 16.9 µM [inhibitor, partial curve, poor fit] | –
31 | CCOc1ccc(NC(=O)Nc2ccc3nsnc3c2)cc1 | – | inactive: 73%
32 | CCN(C(=O)CSc1nc(C)nc2sc(C)c(C)c12)C1CCS(=O)(=O)C1 (stereo not drawn) | inconclusive: 9.28 µM [inhibitor, single point] | –
33 | Cc1noc(C)c1COc1cccc(C(=O)Nc2ccc3c(c2)OCO3)c1 | – | inactive: -27.9%
34 | CCn1c(-c2csc3c2CCCC3)n[nH]c1=S | – | inactive: -12%
35 | CN(C)C(CNC(=O)c1cc(S(=O)(=O)N(C)c2ccc(F)cc2)ccc1Cl)c1ccco1 (stereo not drawn) | inconclusive: 18.5 µM [inhibitor, single point] | –
36 | CCOP(=S)(OCC)SCC(=O)NC(C)(CC)C(=O)O (stereo not drawn) | active: 7.38 µM | –
37 | O=c1c2ccccc2nc2sc(Nc3ccc(Br)cc3)nn12 | inconclusive: 3.29 µM [activator, partial curve] | –
38 | CSCC(=O)NC1CCCc2c1cnn2-c1cc(F)cc(F)c1 (stereo not drawn) | inconclusive: 11.7 µM [inhibitor, single point] | –
39 | O=C(NCCc1ccccc1)c1ccco1 | – | inactive: -20.5%
40 | CCNc1nc(CSc2ccccc2)nc2sc(C)c(C)c12 | inconclusive: 18.5 µM [inhibitor, single point] | –
41 | CC(C)C(=O)N1CCC(c2nc(-c3ccc(S(=O)(=O)N4CCCC4)cc3)no2)CC1 | – | inactive: -22.6%
42 | CN(C)/C=C(/C(=O)c1ccc(Cl)c(Cl)c1)c1nnnn1-c1ccccc1 | inconclusive: 0.0522 µM [inhibitor, full curve, poor fit] | –
43 | Cc1ccc(C(=O)N2CCN(c3ccc([N+](=O)[O-])c(NCc4ccco4)c3)CC2)cc1 | active: 4.65 µM | –
44 | C[C@]12CCC(=O)C[C@@H]1CC[C@@H]1[C@@H]2CC[C@]2(C)[C@@H](O)CC[C@@H]12 | – | inactive: -19.8%
45 | CC1CCCCC1NC(=O)CN1CCC(O)(c2ccc3c(c2)OCO3)CC1 (stereo not drawn) | active: 13.1 µM | –
46 | CCOC(=O)C1=C(c2ccccc2)NC(=O)NC1c1cc(OC)c(O)c([N+](=O)[O-])c1 (stereo not drawn) | inconclusive: 16.5 µM [inhibitor, single point] | –
47 | Cc1cc(NC(=O)c2ccccc2[N+](=O)[O-])ccc1Br | inconclusive: 18.5 µM [inhibitor, single point] | –
48 | CC1CCCCC12NC(=O)N(CC(=O)Nc1ccc3c(c1)OCCCO3)C2=O (stereo not drawn) | inconclusive: 18.5 µM [inhibitor, partial curve, poor fit] | –
49 | CCN(CC)S(=O)(=O)c1ccc(Cl)c(C(=O)NCC2CCCO2)c1 (stereo not drawn) | active: 10.4 µM | –
50 | Cc1nc(NS(=O)(=O)c2ccccc2)sc1NC(=O)Nc1ccccc1 | inconclusive: 18.5 µM [inhibitor, single point] | –

Row | SMILES | Potency | activity change, negative = inhibition
51 | COc1ccc(CC(NC(C)=O)C(=O)NC2CCN(S(=O)(=O)c3cccc4ccccc34)CC2)cc1OC (stereo not drawn) | active: 13.1 µM | –
52 | Cc1scc(C(=O)NNC(=S)NCC2CCCO2)c1-c1ccccc1 (stereo not drawn) | – | inactive: -7.47%
53 | CC(=O)N1CCN(S(=O)(=O)c2cccc(C(=O)OCc3ccc(C(C)(C)C)cc3)c2)CC1 | active: 9.28 µM | –
54 | CN(C)S(=O)(=O)Oc1ccsc1C(=O)Nc1ccc(C(F)(F)F)cc1 | – | inactive: -9.54%
55 | CCCCNC(=O)c1cc2c(=O)n(CC)c3ccccc3c2s1 | active: 6.57 µM | –
56 | COc1ccc(Cl)cc1N1C(=NC(=O)C2CCCCC2)SC2CS(=O)(=O)CC21 (stereo not drawn) | – | inactive: 8.22%
57 | CCn1nc(C(=O)NC2=NCCS2)c2ccccc2c1=O | inconclusive: 7.38 µM [inhibitor, partial curve, poor fit] | –
58 | S=C(Nc1ccccn1)Nc1ccccc1Cl | – | inactive: -24.3%
59 | CNC(=O)c1[nH]cnc1C(=O)Nc1cccc(C)c1 | inconclusive: 14.7 µM [inhibitor, single point] | –
60 | Cc1nccn1CCc1nc(N)nc(N)n1 | inconclusive: 2.33 µM [inhibitor, partial curve, poor fit] | –
61 | CCOC(=O)c1cc(-c2ccco2)nn1-c1ccc(C)cc1 | – | inactive: -3.9%
62 | c1ccc(Sc2cccc3ccccc23)c(CNC2=NCCN2)c1 | active: 0.928 µM | –
63 | O=C(c1ccc(Cl)cc1Cl)N1CCN(c2ccc(N3CCOCC3)nn2)CC1 | – | inactive: -45%
64 | COc1ccc(/C=N/NC(=O)CNS(=O)(=O)c2ccc(C)cc2)cc1 | inconclusive: 4.15 µM [inhibitor, full curve, poor fit] | –
65 | O=C(COC(=O)c1cc([N+](=O)[O-])ccc1N1CCOCC1)Nc1ccccc1OC(F)F | – | inactive: 0.263%
66 | CCN1CCN(C(=O)CSc2cc(=O)n(C)c3ccccc23)CC1 | inconclusive: 2.94 µM [inhibitor, full curve, poor fit] | –
67 | NC1=NC(=O)/C(=C/c2cn(CCC(=O)O)nc2-c2ccc(F)cc2)S1 | inconclusive: 8.28 µM [inhibitor, partial curve, poor fit] | –
68 | COCCN(C(=O)COC(=O)Cc1cccc(OC)c1)c1c(N)n(Cc2ccccc2)c(=O)[nH]c1=O | – | inactive: 0.297%
69 | C[n+]1c2n(c3ccccc31)N=C(c1ccc(Br)cc1)CS2 | inconclusive: 18.5 µM [inhibitor, single point] | –
70 | COc1ccc(/C=C/c2c([N+](=O)[O-])c(=O)n(C)c(=O)n2C)c(OC)c1 | – | inactive: 2.38%
71 | NC1=NN=C(c2ccc3c(c2)OCCO3)CS1 | – | inactive: 36.2%
72 | CCN(CC)CC(=O)NC1CC(C)(C)Cc2c1cnn2-c1ccc(F)cc1 (stereo not drawn) | inconclusive: 14.7 µM [inhibitor, partial curve, poor fit] | –
73 | CC(C)(C)NC1=CC(=O)OC12CCCCC2 | inconclusive: 10.4 µM [inhibitor, single point] | –

Structural class, the compounds so far containing a COOH group
Row | SMILES | Potency | activity change, negative = inhibition
6 | O=C(O)CC(Cc1ccc(Cl)cc1)C(=O)Nc1ccc([N+](=O)[O-])cc1 (stereo not drawn) | inconclusive: 4.15 µM [inhibitor, partial curve] | –
11 | Cc1cc(C)c(S(=O)(=O)/N=C2\C=C(Nc3ccc(C(=O)O)cc3)C(=O)c3ccccc32)c(C)c1 | – | inactive: 18%
36 | CCOP(=S)(OCC)SCC(=O)NC(C)(CC)C(=O)O (stereo not drawn) | active: 7.38 µM | –
67 | NC1=NC(=O)/C(=C/c2cn(CCC(=O)O)nc2-c2ccc(F)cc2)S1 | inconclusive: 8.28 µM [inhibitor, partial curve, poor fit] | –
